The series is described as follows: peptide made by a vendor. To be noted: whole synthesis, 220 nm.

Some peptides are written in HELM: one residue between dots, names in brackets for other building blocks, links after the first $.

As for PEPTIDE1{K.L.I.M.V}$$$$V2.0, the “purity (crude or final not stated)” value was found to be 95.7%.

These data come from paper PMC13659687 (Food Chemistry: Molecular Sciences, 2026).
